Measurements published in PubChem BioAssay (NCATS).
The inconclusive results got no clear call from the source; some entries with a clear call stand among them for comparison. Where the call is inconclusive, the potency comes from a doubtful curve fit. Calls of active or inactive are those of the source. The call rests on the fitted dose curve; in most records, active means well fitted inhibition curve with a large enough effect; inconclusive means small, poorly fitted or top-dose-only effect; inactive means no such curve, though single readings can be large or run the other way.

Sequences of proteins named here, by UniProt entry; tags and fusion partners are left off. A change or cut given only in a name is not applied to a line headed by its entry.
UniProt P54132: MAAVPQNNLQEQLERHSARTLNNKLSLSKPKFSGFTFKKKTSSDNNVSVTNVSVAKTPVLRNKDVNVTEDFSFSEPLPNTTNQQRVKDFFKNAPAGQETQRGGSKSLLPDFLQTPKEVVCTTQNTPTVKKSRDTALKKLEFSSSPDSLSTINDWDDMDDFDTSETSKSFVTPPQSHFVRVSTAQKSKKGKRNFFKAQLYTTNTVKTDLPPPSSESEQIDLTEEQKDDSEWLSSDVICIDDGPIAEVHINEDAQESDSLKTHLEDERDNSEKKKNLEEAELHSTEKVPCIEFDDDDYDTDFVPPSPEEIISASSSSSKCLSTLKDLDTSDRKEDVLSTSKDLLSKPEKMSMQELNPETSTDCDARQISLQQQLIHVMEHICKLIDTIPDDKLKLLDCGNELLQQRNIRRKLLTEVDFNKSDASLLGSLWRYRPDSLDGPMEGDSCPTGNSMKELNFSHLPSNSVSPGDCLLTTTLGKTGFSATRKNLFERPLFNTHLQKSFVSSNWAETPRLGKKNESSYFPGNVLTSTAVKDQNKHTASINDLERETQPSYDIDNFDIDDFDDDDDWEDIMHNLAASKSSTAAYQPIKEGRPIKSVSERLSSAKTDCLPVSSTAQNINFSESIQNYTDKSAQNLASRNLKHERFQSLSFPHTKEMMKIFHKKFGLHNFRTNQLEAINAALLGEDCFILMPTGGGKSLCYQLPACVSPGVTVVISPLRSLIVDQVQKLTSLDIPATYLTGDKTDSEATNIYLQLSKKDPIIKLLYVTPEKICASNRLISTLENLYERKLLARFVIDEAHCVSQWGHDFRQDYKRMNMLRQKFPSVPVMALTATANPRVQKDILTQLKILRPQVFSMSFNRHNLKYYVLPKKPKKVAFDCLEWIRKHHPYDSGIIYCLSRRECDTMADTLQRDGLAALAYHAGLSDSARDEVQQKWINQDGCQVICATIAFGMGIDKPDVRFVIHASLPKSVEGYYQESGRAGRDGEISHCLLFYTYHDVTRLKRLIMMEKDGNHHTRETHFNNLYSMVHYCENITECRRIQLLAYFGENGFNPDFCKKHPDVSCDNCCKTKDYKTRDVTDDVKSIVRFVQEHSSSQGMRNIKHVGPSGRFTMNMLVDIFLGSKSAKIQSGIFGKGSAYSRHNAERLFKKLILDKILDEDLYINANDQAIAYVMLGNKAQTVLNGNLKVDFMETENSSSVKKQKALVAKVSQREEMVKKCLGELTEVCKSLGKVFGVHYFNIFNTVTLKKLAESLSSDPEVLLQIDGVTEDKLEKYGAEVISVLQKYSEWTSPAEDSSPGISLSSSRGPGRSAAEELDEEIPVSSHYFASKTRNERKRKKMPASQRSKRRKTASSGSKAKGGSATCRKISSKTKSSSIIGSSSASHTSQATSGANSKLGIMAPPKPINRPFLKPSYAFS

Target: RecQ-like DNA helicase BLM (Homo sapiens) (UniProt P54132)
Experiment: qHTS for Inhibitors of WRN Helicase: BLM Helicase Counterscreen for WRN Inhibitors (AID 720503); further: nearly all actives have a fitted effect of over 60% in size
Details: Recombinant BLM helicase DNA unwinding, red fluorescence; series mostly up to 57.1 µM; activity change, negative = inhibition: at the top concentration
From the text: Inhibition of DNA repair is proposed as a strategy for combating cancer. Synthetic lethality is an approach that exploits preexisting DNA repair deficiencies in certain tumors to develop inhibitors of DNA repair pathways that compensate for the tumor-associated DNA repair deficiency. Because helicases play critical roles in the DNA damage response and in DNA repair, particularly in actively dividing and replicating cells, characterization of synthetic lethal relationships of DNA helicases may be of value in developing improved anticancer treatment strategies; moreover, small molecules that specifically target a given DNA helicase may be useful for understanding its role in cellular nucleic acid metabolism. The goal of this project is to identify small molecule, non-covalent chemical inhibitors of the Werner syndrome (WS) helicase (WRN), which plays an important role in cell proliferation, the replication stress response, and DNA repair. […] The WRN gene product that is defective in the chromosomal instability disorder has DNA helicase and exonuclease activities and interacts with a number of nuclear proteins to maintain genomic stability. A 1536-well format, fluorescence based, high-throughput screen (AID 651768) has been developed in collaboration with the Brosh Laboratory at the National Institute of Aging (NIA) to screen for inhibitors of the WRN. This counterscreen is used to determine the activity of the validated WRN inhibitors against another related helicase, the Bloom's syndrome (BLM) helicase. […] NIH Chemical Genomics Center [NCGC] NIH Molecular Libraries Probe Centers Network [MLPCN] MLPCN Grant: MH096530 Assay Submitter (PI): Robert Brosh, National Institute of Aging
Three uL of reaction buffer (25 mM Tris-HCl pH 8.0, 50 mM NaCl, 2 mM MgCl2, 1 mM DTT, 0.01% Tween-20, and 1 nM BLM) was dispensed into a 1536-well Greiner black assay plate via solenoid-valve based nanoliter dispensers. Compounds (23 nl each in columns 5-48) and control (23 nl each in column 2 as dose-response) were transferred to the assay plate via a Kalypsys pin-tool equipped with a 1536-pin array. The plates were incubated for 15 min at room temperature, followed by the addition of 1 ul substrates (100 nM DNA and 2 mM ATP, final concentrations) to start the reaction. The plates were transferred into a ViewLux CCD imager where the reaction was measured in a discontinuous kinetic mode (two reads spaced 15 minutes apart, with intermediate room temperature incubation of the covered assay plate) using the standard red-fluorescence optics (excitation filter 525 nm, emission filter 598 nm). Enzyme-free and vehicle (DMSO) controls were included for signal normalization.
Potency means the concentration at half of the fitted maximal effect.

SMILES	Potency	activity change, negative = inhibition
C=CCc1cc(C=C2C(=O)N(C)C(=O)N(C)C2=O)cc(OCC)c1OCc1ccccc1	inconclusive: 21.5 µM [inhibitor, partial curve]	–
COc1cc(OC)c(OC)cc1/C=C1/C(=O)NC(=O)N(Cc2ccccc2)C1=O	inconclusive: 17.1 µM [inhibitor, partial curve]	–
COc1cccc(OC)c1-c1nn2c(-c3n[nH]c4c3CCC4)nnc2s1	inconclusive: 3.41 µM [inhibitor, partial curve]	–
CCC(C)N1C(=O)/C(=C\c2cnc(N(C)C)nc2)C(=O)NC1=S (centres undefined)	–	inactive: -17.7%
O=C1NC(=O)N(c2ccccc2)C(=O)/C1=C\c1ccc([N+](=O)[O-])s1	active: 17.1 µM	–
O=C(O)COc1ccccc1/C=C1\C(=O)NC(=O)N(CCC2=CCCCC2)C1=O	–	inactive: -26.1%
N#Cc1c(-c2csc(-c3no[n+]([O-])c3C#N)c2)no[n+]1[O-]	inconclusive: 27.1 µM [inhibitor, partial curve]	–
O=C1NC(=O)C(=Cc2ccccc2OCCOc2ccc([N+](=O)[O-])cc2)C(=O)N1	inconclusive: 21.5 µM [inhibitor, partial curve]	–
O=C1NC(=O)C(=Cc2ccccc2[N+](=O)[O-])C(=O)N1	–	inactive: 0.329%
O=C(O)CCn1cc(C=C2C(=O)NC(=S)NC2=O)c(-c2cccc(Br)c2)n1	–	inactive: -0.206%
CCN(CC)c1ccc(/C=C2\C(=O)NC(=O)N(Cc3ccco3)C2=O)cc1	inconclusive: 24.1 µM [inhibitor, partial curve]	–
O=C1NC(=O)C(=Cc2c(Cl)cccc2Cl)C(=O)N1	–	inactive: -4.38%
C=CCN1C(=O)/C(=C/c2cccs2)C(=O)NC1=S	inconclusive: 24.1 µM [inhibitor, partial curve, poor fit]	–
Cc1cc(/C=C2\C(=O)NC(=O)N(c3ccc(Br)cc3)C2=O)c(C)n1-c1cc(C(=O)O)cc(C(=O)O)c1	–	inactive: -16.9%
O=C1CC=C2C3CC4N(CCC45c4cc(O)c(O)cc4N1C25)CC3=CCBr (centres undefined)	active: 5.41 µM	–
CCN(CCCl)c1cc(CN(C)C)cc(NC(=O)c2ccc(C(=O)Nc3cc(CN(C)C)cc(N(CC)CCCl)c3)cc2)c1	inconclusive: 30.4 µM [inhibitor, partial curve]	–
Cc1cc(/C=C2\C(=O)NC(=O)N(c3ccccc3F)C2=O)c(C)n1-c1cc(C(=O)O)cc(C(=O)O)c1	–	inactive: -4.46%
CN1C(=O)/C(=C\c2ccc(Br)s2)C(=O)NC1=S	inconclusive: 7.64 µM [inhibitor, full curve]	–
O=[N+]([O-])c1cc(S(=O)(=O)c2ccc(O)c([N+](=O)[O-])c2)ccc1O	inconclusive: 27.1 µM [inhibitor, partial curve]	–

A draw from above in order of number of heavy atoms, rising:
SMILES	Potency	activity change, negative = inhibition
C=CCN1C(=O)/C(=C/c2cccs2)C(=O)NC1=S	inconclusive: 24.1 µM [inhibitor, partial curve, poor fit]	–
CCN(CC)c1ccc(/C=C2\C(=O)NC(=O)N(Cc3ccco3)C2=O)cc1	inconclusive: 24.1 µM [inhibitor, partial curve]	–
Cc1cc(/C=C2\C(=O)NC(=O)N(c3ccc(Br)cc3)C2=O)c(C)n1-c1cc(C(=O)O)cc(C(=O)O)c1	–	inactive: -16.9%
